Results from PMC9265050, “Inhibition of RNA Binding in SND1 Increases the Levels of miR-1-3p and Sensitizes Cancer Cells to Navitoclax” (Cancers, 2022).
The exact form of at least one protein or probe is not confirmed. For some of these results: At least one verdict rests on a figure or table, not on a statement of the authors. Where a protein sequence is shown, tags need not be part of it. For some of these results: Whether high values mean tight binding is not given here for every scale.

Legend:
SND1 full-length [1] = target: T1, SND1 full-length (UniProt Q7KZF4); assay: EMSA; settings: 5 mM EGTA, 2 uM RNA, 2 uM SND1; EMSA: same buffer with 5 mM EGTA or 5 mM CaCl2, room temperature 1 or 4 h, 20% PAGE 1xTBE 4 C; recombinant protein; protein details: GST tag removed by TEV; label: 5' Alexa Fluor 488
T1 sequence (looked up, limits assumed): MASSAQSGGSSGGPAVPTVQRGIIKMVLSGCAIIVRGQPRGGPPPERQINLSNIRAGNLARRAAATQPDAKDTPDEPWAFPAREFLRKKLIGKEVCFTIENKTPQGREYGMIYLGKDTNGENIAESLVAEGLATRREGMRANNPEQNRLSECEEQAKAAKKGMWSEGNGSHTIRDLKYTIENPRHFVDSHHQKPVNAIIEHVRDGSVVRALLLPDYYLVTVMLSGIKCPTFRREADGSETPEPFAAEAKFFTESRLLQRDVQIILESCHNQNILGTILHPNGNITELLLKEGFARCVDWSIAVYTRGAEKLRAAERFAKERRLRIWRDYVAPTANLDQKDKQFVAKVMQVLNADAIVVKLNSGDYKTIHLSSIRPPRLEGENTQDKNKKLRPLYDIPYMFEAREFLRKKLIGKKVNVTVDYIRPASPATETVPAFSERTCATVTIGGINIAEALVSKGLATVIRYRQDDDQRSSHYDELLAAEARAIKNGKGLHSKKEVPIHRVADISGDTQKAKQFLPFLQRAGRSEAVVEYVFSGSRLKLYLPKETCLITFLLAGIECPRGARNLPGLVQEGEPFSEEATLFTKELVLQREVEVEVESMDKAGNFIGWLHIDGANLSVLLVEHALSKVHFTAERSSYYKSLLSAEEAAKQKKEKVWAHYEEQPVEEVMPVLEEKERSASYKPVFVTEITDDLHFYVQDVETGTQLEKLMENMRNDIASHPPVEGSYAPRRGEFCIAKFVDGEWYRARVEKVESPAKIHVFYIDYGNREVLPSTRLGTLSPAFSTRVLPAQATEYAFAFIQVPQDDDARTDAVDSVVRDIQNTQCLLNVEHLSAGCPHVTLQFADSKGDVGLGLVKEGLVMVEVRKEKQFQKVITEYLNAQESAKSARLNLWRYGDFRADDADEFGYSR

SND1 SN1-SN2 = target: T2, SND1 SN1-SN2 (UniProt Q7KZF4); assay: fluorescence polarization; settings: FP: 20 mM HEPES pH 7.5, 100 mM NaCl, 3 nM labelled RNA, 25 C; recombinant protein; residues 16-339; protein details: GST tag removed by TEV; label: 5' Alexa Fluor 488; scale: fold lower affinity than full-length SND1
T2 sequence (looked up): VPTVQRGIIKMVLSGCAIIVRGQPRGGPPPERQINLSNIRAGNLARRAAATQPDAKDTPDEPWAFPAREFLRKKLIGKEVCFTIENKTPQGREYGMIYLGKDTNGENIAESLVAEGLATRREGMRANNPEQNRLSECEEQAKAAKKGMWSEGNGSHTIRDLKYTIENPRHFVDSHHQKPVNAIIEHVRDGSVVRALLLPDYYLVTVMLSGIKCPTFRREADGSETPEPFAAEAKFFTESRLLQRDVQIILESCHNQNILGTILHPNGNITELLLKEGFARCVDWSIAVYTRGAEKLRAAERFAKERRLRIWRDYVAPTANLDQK

SND1 SN3-SN4-TSN = target: T3, SND1 SN3-SN4-TSN (UniProt Q7KZF4); assay: fluorescence polarization; settings: FP: 20 mM HEPES pH 7.5, 100 mM NaCl, 3 nM labelled RNA, 25 C; recombinant protein; residues 340-888; protein details: GST tag removed by TEV; label: 5' Alexa Fluor 488; scale: fold lower affinity than full-length SND1
T3 sequence (looked up): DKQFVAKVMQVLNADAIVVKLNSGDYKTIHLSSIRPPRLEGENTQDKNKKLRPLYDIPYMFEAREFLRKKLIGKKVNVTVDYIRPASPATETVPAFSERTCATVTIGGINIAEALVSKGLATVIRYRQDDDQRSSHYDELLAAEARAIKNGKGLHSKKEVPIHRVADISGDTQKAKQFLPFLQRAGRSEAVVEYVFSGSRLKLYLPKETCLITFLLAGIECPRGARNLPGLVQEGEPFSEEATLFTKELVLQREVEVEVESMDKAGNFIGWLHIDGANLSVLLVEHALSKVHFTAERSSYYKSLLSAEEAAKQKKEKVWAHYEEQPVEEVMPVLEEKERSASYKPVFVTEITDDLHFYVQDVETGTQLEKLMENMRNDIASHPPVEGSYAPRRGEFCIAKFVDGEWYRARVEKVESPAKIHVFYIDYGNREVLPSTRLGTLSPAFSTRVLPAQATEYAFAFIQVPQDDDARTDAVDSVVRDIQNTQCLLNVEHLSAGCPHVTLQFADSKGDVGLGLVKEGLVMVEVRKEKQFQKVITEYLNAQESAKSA

SND1 full-length [2] = target: T1, SND1 full-length; assay: fluorescence polarization; settings: EGTA, no Ca2+, high affinity, Kd only in figure; FP: 20 mM HEPES pH 7.5, 100 mM NaCl, 3 nM labelled RNA, 25 C; recombinant protein; protein details: GST tag removed by TEV; label: 5' Alexa Fluor 488

Sequence: UAGCACCAUUUGAAAUCAGUGUU [Alexa Fluor 488 RNA tracer]
- binding result (SND1 full-length [1]): binds
- binding signal (SND1 SN1-SN2): 100
- binding signal (SND1 SN3-SN4-TSN): 100
- binding result (SND1 full-length [2]): binds
